Screen size: about 410,000 compounds; about 2,000 (0.49%) were called active. This list was built around the results that the source calls inconclusive (neither active nor inactive); the mix of calls is not that of the screen. The call rests on the fitted dose curve; tested in HEK293 reporter line. Potencies of inconclusive entries are doubtful fits and often do not repeat. Peptide text beside a SMILES is read from it. * marks the point of attachment. Cbz = O=C(OCc1ccccc1)*; CH2Cl = ClC*
Assay: qHTS Assay for Foot and Mouth Disease Virus Antivirals: Primary Screen against the MLPCN compound library; further: nearly all actives have a fitted effect of over 55% in size
Conditions: FMDV antiviral cell-based qHTS; activity, negative = inhibition: at 57.9 µM (top of the series)
Potency means the concentration at half of the fitted maximal effect.

| Structure (SMILES) | Potency | activity, negative = inhibition |
| --- | --- | --- |
| Cc1cccc(C)c1-n1nnnc1C(CCc1ccccc1)N1CCC(n2c(=O)[nH]c3ccccc32)CC1 (centres undefined) | inconclusive: 10 µM [inhibitor, partial curve, poor fit] | – |
| C/C(=N/NC(=O)CNC(=O)c1ccccn1)c1ccc([N+](=O)[O-])cc1 | inconclusive: 2.82 µM [inhibitor, full curve] | – |
| O=S1(=O)N=C(Nc2nc3c(s2)CCCC3)c2ccccc21 | inconclusive: 20 µM [inhibitor, single point] | – |
| Cc1ccn2c(-c3csc(NCc4ccccc4)n3)c(C)nc2c1 | inconclusive: 15.8 µM [inhibitor, partial curve, poor fit] | – |
| Cc1cc(/C=C2\SC(=S)N(C)C2=O)c(C)n1-c1cccc(O)c1 | inconclusive: 1.26 µM [inhibitor, full curve, poor fit] | – |
| COc1ccccc1Nc1cc(C)nc2c(C)ccc([N+](=O)[O-])c12 | inactive | – |
| COc1ccc(C(=O)Oc2ccc(F)cc2C(=O)/C=C/c2ccc(OC)c(OC)c2)cc1 | inconclusive: 39.8 µM [inhibitor, partial curve, poor fit] | – |
| CCOc1ccc(-c2nnc3ccc(SC(C)C)nn23)cc1 | inactive | – |
| CC(OC(=O)C1=NNC(=O)CC1)C(=O)Nc1ncc(Cl)cc1Cl (centres undefined) | inconclusive: 3.16 µM [inhibitor, full curve] | – |
| CC(C)(C)c1ccc(-n2nc(C#N)c(Cl)cc2=O)cc1 | inconclusive: 12.6 µM [inhibitor, partial curve, poor fit] | – |
| O=C(Nc1ccc(Oc2ccccc2)cc1)c1csc([C@@H]2O[C@H](CO)[C@@H](O)[C@H]2O)n1 | inconclusive: 15.8 µM [inhibitor, partial curve, poor fit] | – |
| Clc1ccc(-c2noc3ncnc(N4CCCCC4)c23)cc1 | inconclusive: 25.1 µM [inhibitor, partial curve, poor fit] | – |
| N=c1c2c(n(Cc3ccc(F)cc3)c3c1CCC3)CCC2 | inconclusive: 7.94 µM [inhibitor, partial curve, poor fit] | – |
| CCCS(=O)(=O)N1CCC(C(=O)NCCCN(C)Cc2ccccc2)CC1 | inconclusive: 28.2 µM [inhibitor, partial curve, poor fit] | – |
| O=C(/C=C/Nc1ccccc1F)c1cccs1 | inconclusive: 12.6 µM [inhibitor, partial curve, poor fit] | – |
| C=CC[C@@H](CC(=O)OC(C)(C)C)C(=O)OC[C@@H]1CCCN1C(=O)[C@@H](CC=C)CC(=O)N[C@H](CO)Cc1ccccc1 | active: 14.1 µM | – |
| Cc1sc2c(c1C)C(O)=C(C(=O)Nc1ccccc1)S(=O)(=O)N2C | inconclusive: 8.91 µM [inhibitor, single point] | – |
| CN(CCOc1ccc(Cl)cc1)C(=O)c1cc(-c2ccco2)nc2ccccc12 | inconclusive: 35.5 µM [inhibitor, partial curve, poor fit] | – |
| Cc1nc2ccc(NC(=O)c3cc(Cl)ccn3)cc2s1 | inconclusive: 11.2 µM [inhibitor, partial curve] | – |
| Cc1ccc(NC(=O)c2cc(-c3cccs3)nc3ccccc23)c(C)c1 | inactive | – |
| Cc1oc2c(c1C(=O)NCc1cccnc1)C(=O)c1ccccc1C2=O | inconclusive: 3.16 µM [inhibitor, full curve, poor fit] | – |
| Cc1cc(C)c(S(=O)(=O)N2CCN(C(=O)c3c(C)nn(-c4ccccc4)c3Cl)CC2)c(C)c1 | inconclusive: 25.1 µM [inhibitor, partial curve, poor fit] | – |
| Cc1ccc(-n2ncc3c(N4CCCCC4)ncnc32)cc1 | inactive | – |

| Structure (SMILES) | Potency | activity, negative = inhibition |
| --- | --- | --- |
| CC1(c2nnc(-c3ccncc3)o2)CC(c2ccc([N+](=O)[O-])cc2)=NO1 (centres undefined) | inactive | – |
| COc1ccc2cnn(CCOc3ccccc3)c(=O)c2c1OC | inconclusive: 39.8 µM [inhibitor, single point] | – |
| CC(NC(=O)/C(C#N)=C/c1ccc([N+](=O)[O-])o1)c1ccccc1 (centres undefined) | inconclusive: 28.2 µM [inhibitor, partial curve, poor fit] | – |
| Cc1cccc(N2CCN(c3ncnc4c3cnn4-c3ccc(Cl)cc3)CC2C)c1 (centres undefined) | inconclusive: 31.6 µM [inhibitor, partial curve, poor fit] | – |
| O=c1c2c(nc3n1CCCCC3)sc1c(O)c(Br)ccc12 | inconclusive: 14.1 µM [inhibitor, single point] | – |
| COc1ccc(N2CC(C(=O)N(CC(C)C)c3c(N)n(Cc4ccccc4)c(=O)[nH]c3=O)CC2=O)c(OC)c1 (centres undefined) | inconclusive: 25.1 µM [inhibitor, partial curve, poor fit] | – |
| O=C(Nc1ccc(NC(=O)c2ccccc2F)cn1)c1ccco1 | inconclusive: 22.4 µM [inhibitor, single point] | – |
| COC(=O)c1c(NC(=O)C2(C)Cc3ccccc3C(=O)O2)sc2c1CCCC2 (centres undefined) | inconclusive: 7.94 µM [inhibitor, partial curve] | – |
| Cc1ccc(/C=C/c2nc3ccccc3c(=O)n2CCc2ccccc2)cc1 | inactive | – |
| N#Cc1ccc(OCC(O)CN2CCN(c3ncc(C(F)(F)F)cc3Cl)CC2)cc1 (centres undefined) | inconclusive: 12.6 µM [inhibitor, partial curve] | – |
| CC(C)CC(NC(=O)OCc1ccccc1)C(=O)NC(Cc1ccccc1)C(=O)CCl (stereo not drawn) (Cbz-Leu-Phe-CH2Cl; configuration not given here) | inconclusive: 25.1 µM [inhibitor, partial curve, poor fit] | – |
| COc1cccc(-c2nc3ccccc3s2)c1O | inconclusive: 20 µM [inhibitor, single point] | – |
| O=C1/C(=C/c2ccco2)CCc2ccccc21 | inconclusive: 17.8 µM [inhibitor, single point] | – |
| Cc1ccc(-n2c(SCC(N)=O)nc3c(c2=O)C2(CCCC2)Cc2ccccc2-3)cc1 | inconclusive: 22.4 µM [inhibitor, partial curve, poor fit] | – |
| CCc1noc(C)c1C(=O)Nc1nc(-c2ccc(Cl)cc2Cl)c(C)s1 | inactive | – |
| COc1cccc(NC(=O)c2ccc3nc(Cc4ccccc4)oc3c2)c1 | inconclusive: 15.8 µM [inhibitor, partial curve] | – |
| CC(C)(C)c1ccc(NC(=O)Nc2ccc(F)cc2)cc1 | inconclusive: 39.8 µM [inhibitor, single point] | – |
| Cc1cccc2cc(C#N)c(N3CCC(O)CC3)nc12 | – | inconclusive: -35.8% [inhibitor] |
| CSCCC(c1nnnn1C1CCCCC1)N1CCC(n2c(=O)[nH]c3ccccc32)CC1 (centres undefined) | inactive | – |
| O=C(NC12CC3CC(CC(C3)C1)C2)N1CCN(c2nc(-c3ccccc3)cs2)CC1 | inconclusive: 25.1 µM [inhibitor, partial curve, poor fit] | – |
| Nc1cc(-c2ccc(Br)cc2)nn1S(=O)(=O)c1ccccc1 | inactive | – |
| COC(=O)c1ccc(-n2c(C)cc(C(=O)CCl)c2C)cc1 | inconclusive: 31.6 µM [inhibitor, partial curve, poor fit] | – |
| O=C(NCCc1ccccc1)c1ccc2c(c1)OCCO2 | inconclusive: 1.78 µM [inhibitor, full curve, poor fit] | – |

Exported tab-delimited: part of the list above
Structure (SMILES)	Potency	activity, negative = inhibition
CCCS(=O)(=O)N1CCC(C(=O)NCCCN(C)Cc2ccccc2)CC1	inconclusive: 28.2 µM [inhibitor, partial curve, poor fit]	–
O=C(/C=C/Nc1ccccc1F)c1cccs1	inconclusive: 12.6 µM [inhibitor, partial curve, poor fit]	–
CN(CCOc1ccc(Cl)cc1)C(=O)c1cc(-c2ccco2)nc2ccccc12	inconclusive: 35.5 µM [inhibitor, partial curve, poor fit]	–
Cc1cc(C)c(S(=O)(=O)N2CCN(C(=O)c3c(C)nn(-c4ccccc4)c3Cl)CC2)c(C)c1	inconclusive: 25.1 µM [inhibitor, partial curve, poor fit]	–
Cc1cccc(N2CCN(c3ncnc4c3cnn4-c3ccc(Cl)cc3)CC2C)c1 (centres undefined)	inconclusive: 31.6 µM [inhibitor, partial curve, poor fit]	–

Further records follow:

| Structure (SMILES) | Potency | activity, negative = inhibition |
| --- | --- | --- |
| COc1ccc(N2CCN(C(=O)COc3ccc4c(C)cc(=O)oc4c3)CC2)cc1 | inconclusive: 22.4 µM [inhibitor, single point] | – |
| CCC(C)Sc1ccc(-c2nc3ccccn3c2NCc2ccccc2)cc1OC (centres undefined) | inconclusive: 39.8 µM [inhibitor, single point] | – |
| COc1ccc(F)cc1-c1cc(C(=O)Nc2ccc(C)c(NS(C)(=O)=O)c2)[nH]n1 | inconclusive: 35.5 µM [inhibitor, single point] | – |
| Cc1ccc(C(=O)N/N=C/c2ccc(-c3cccc(C(F)(F)F)c3)o2)cn1 | inconclusive: 31.6 µM [inhibitor, partial curve, poor fit] | – |
| CCCCN1C(C)=CC(=C2C(=O)c3ccccc3C2=O)C=C1C | inconclusive: 20 µM [inhibitor, single point] | – |
| CC1CC(C)CN(C(=O)C2CCN(S(=O)(=O)c3cccc4cccnc34)CC2)C1 (centres undefined) | inconclusive: 11.2 µM [inhibitor, partial curve, poor fit] | – |
| COc1cc(C2C3=C(CC(C)(C)CC3=O)NC3=C2C(=O)c2ccccc23)ccc1O (centres undefined) | inconclusive: 15.8 µM [inhibitor, partial curve] | – |
| CCOC(=O)c1c(CSc2ccc(C)cc2)oc2ccc(O)cc12 | inconclusive: 22.4 µM [inhibitor, partial curve, poor fit] | – |
| O=C(Nc1nnc(C2CC2)s1)c1ccccn1 | inconclusive: 11.2 µM [inhibitor, single point] | – |
| CC(C)CNc1nc2c(c(=O)n(C)c(=O)n2C)n1Cc1cccc(Br)c1 | inactive | – |
| CCCCCCN(C(=O)CCl)c1ccccc1 | inconclusive: 20 µM [inhibitor, partial curve, poor fit] | – |
| CCn1c(SCC(=O)Nc2cccc(NC(C)=O)c2)nc2c([nH]c3ccccc32)c1=O | inactive | – |
| O/C=c1\ccc2cccc3nc(C(F)(F)F)nc1c23 | inconclusive: 12.6 µM [inhibitor, partial curve, poor fit] | – |
| COc1ccc(CCNC(=O)CC(c2ccccc2)c2cccc(C)c2O)cc1OC (centres undefined) | inconclusive: 22.4 µM [inhibitor, partial curve, poor fit] | – |
| CC(=O)Nc1ccc(S(=O)(=O)Nc2nc3ccc(C)cc3s2)cc1 | inactive | – |
| Cc1ccc(OCC(=O)Nc2c(C)nn(-c3ccccc3)c2C)c(Br)c1 | inconclusive: 39.8 µM [inhibitor, partial curve, poor fit] | – |
| CCOc1ccc2nc(NC(=O)COC)sc2c1 | inconclusive: 39.8 µM [inhibitor, single point] | – |
| Cc1sc2ncnc(N3CCC(C(=O)Nc4ccc(Br)cc4Br)CC3)c2c1C | inconclusive: 20 µM [inhibitor, partial curve, poor fit] | – |
| O=C(CSc1nnc(NC(=O)C2CC(=O)N(c3ccc(F)cc3)C2)s1)NCC1CCCO1 (centres undefined) | – | inconclusive: -30.2% [inhibitor] |
| N=c1n(CCO)c2ccccc2n1CCOc1ccc(Cl)cc1Cl | inconclusive: 28.2 µM [inhibitor, partial curve, poor fit] | – |
| COc1ccc(NC(=O)C2Cc3c(-c4ccccc4)ccnc3O2)cc1OC (centres undefined) | inconclusive: 35.5 µM [inhibitor, partial curve, poor fit] | – |
| O=C(NCc1ccc(Cl)cc1)c1ccncc1 | inconclusive: 31.6 µM [inhibitor, partial curve, poor fit] | – |
| COc1ccc(C2CC(=O)c3cnc(NC(=O)c4ccccc4OC)nc3C2)c(OC)c1 (centres undefined) | inconclusive: 17.8 µM [inhibitor, partial curve, poor fit] | – |

From PubChem BioAssay AID1347131 (National Center for Advancing Translational Sciences (NCATS), 2019)
